Data reported in PMC12380113.
For at least one entry, the source does not settle the construct or the ends of the probe. Results from cells or extracts need not show a direct contact. Where a protein sequence is shown, tags need not be part of it.

Target: T1, CD34 (orbital fibroblast lysate) (UniProt P28906)
T1 sequence (looked up, limits assumed): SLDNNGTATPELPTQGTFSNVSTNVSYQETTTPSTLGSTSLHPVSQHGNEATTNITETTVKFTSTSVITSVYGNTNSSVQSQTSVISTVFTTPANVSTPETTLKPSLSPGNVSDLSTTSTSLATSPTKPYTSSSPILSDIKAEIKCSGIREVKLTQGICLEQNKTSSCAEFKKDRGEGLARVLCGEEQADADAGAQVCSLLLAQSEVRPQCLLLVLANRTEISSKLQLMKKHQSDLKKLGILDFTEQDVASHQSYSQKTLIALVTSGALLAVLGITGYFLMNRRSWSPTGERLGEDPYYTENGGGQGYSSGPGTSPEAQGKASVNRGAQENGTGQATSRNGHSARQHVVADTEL
Test: pull-down with immunoblot
Settings: 150 pmol aptamer, 100 ug lysate protein, 20% FBS and 0.1 mg/mL salmon sperm DNA block, 4 C overnight; flow cytometry at 4 C, 1 h; pull-down lysis buffer 5 mM MgCl2; protein in an extract; single-stranded DNA

**Q.** Does “CAGCACCGTCAACTGAATCTCATTGCGGCGTCCGGCTGGACGTTATTGTTGGAACCGTGATGCGATGGAGATGT [CD34 Apt (biotin)]” bind?
**A.** binds
